ClpP1P2: 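ClpP1P2, Mycobacterium tuberculosis (UniProt P9WPC5 and UniProt P9WPC3). Protease assay of ClpP1P2, read by the AMC dye that it sets free. Compounds at 50 µM. Direction is inferred from only a few compounds that gave an IC50; most scored high, so higher reads as stronger inhibition. Most other retested compounds had strongly negative values. About 69,000 compounds were tested under these conditions; 0.015% (about 10) showed 50% or more at least once.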
TcHisRS: 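Enzyme assay of histidyl-tRNA synthetase; the read-out is not stated. Target: Histidine-tRNA ligase, Trypanosoma cruzi CL Brener (UniProt Q4DA54). Concentration: 30 µM. Higher reads as stronger inhibition (inferred: compounds with an IC50 in retests scored well above the rest). Of about 69,000 compounds tested this way, about 31 (0.045%) reached 50% or more in at least one test.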
PfKRS1: 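Lysine-tRNA ligase, Plasmodium falciparum 3D7 (UniProt Q8IDJ8). Enzyme assay of the cytosolic lysyl-tRNA synthetase in 384-well plates, read by luminescence. Tested at 30 µM. Direction is inferred from only a few compounds that gave an IC50; most scored high, so higher reads as stronger inhibition. About 69,000 compounds were tested under these conditions; 0.071% (about 49) showed 50% or more at least once.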
Pks13 thioesterase: 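Enzyme assay of the thioesterase domain of polyketide synthase 13; the read-out is not stated. Target: Polyketide synthase Pks13, Mycobacterium tuberculosis (UniProt I6X8D2). Concentration: 30 µM. The record gives no direction; the compounds picked for IC50 retests had high values, so higher reads as stronger inhibition. Of about 67,000 compounds tested this way, about 300 (0.46%) reached 50% or more in at least one test.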

Chains of the proteins cited; added tags and fusions are not shown. Residues count along the entry.
UniProt P9WPC5, whole entry: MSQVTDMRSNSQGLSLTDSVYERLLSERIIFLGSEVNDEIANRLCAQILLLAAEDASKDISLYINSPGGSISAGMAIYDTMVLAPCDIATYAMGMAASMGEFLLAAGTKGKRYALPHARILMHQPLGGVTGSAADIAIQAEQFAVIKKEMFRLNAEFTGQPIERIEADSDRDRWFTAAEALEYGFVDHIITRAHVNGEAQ
UniProt P9WPC3, whole entry partner: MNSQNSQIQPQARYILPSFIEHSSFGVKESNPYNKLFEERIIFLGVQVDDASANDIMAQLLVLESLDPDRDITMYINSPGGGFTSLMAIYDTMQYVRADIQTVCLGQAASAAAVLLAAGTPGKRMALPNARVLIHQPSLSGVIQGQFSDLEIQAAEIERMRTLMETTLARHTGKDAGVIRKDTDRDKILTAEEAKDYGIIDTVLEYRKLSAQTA
UniProt Q4DA54, 1-478: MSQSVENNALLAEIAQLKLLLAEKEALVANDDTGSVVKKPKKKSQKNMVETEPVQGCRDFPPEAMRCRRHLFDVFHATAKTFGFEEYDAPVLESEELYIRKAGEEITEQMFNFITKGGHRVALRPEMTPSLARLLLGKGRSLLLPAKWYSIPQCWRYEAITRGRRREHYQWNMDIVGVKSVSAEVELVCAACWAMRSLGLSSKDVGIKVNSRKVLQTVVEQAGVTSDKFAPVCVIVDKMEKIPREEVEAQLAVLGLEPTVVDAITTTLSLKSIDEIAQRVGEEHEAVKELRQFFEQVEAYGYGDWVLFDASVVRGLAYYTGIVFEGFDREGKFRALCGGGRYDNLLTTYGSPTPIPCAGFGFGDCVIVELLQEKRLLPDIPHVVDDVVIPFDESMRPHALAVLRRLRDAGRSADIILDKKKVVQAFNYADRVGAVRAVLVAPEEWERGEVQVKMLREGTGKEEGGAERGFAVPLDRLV
UniProt Q8IDJ8, 1-583: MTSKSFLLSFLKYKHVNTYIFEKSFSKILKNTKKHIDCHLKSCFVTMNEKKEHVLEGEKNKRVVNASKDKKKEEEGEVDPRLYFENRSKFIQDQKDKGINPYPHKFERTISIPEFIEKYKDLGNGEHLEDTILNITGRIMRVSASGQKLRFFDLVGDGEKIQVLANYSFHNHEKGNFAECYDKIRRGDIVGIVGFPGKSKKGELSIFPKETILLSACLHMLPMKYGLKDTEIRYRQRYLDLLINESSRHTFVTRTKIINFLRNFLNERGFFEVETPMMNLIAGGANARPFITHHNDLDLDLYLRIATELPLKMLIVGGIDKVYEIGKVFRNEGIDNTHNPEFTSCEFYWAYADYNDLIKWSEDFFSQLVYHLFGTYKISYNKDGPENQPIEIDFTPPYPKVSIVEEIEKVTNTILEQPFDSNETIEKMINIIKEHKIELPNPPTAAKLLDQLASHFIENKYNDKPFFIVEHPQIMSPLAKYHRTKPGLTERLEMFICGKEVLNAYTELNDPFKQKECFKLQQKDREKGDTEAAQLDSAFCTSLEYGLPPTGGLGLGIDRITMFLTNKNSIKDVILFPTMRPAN
UniProt I6X8D2, whole entry: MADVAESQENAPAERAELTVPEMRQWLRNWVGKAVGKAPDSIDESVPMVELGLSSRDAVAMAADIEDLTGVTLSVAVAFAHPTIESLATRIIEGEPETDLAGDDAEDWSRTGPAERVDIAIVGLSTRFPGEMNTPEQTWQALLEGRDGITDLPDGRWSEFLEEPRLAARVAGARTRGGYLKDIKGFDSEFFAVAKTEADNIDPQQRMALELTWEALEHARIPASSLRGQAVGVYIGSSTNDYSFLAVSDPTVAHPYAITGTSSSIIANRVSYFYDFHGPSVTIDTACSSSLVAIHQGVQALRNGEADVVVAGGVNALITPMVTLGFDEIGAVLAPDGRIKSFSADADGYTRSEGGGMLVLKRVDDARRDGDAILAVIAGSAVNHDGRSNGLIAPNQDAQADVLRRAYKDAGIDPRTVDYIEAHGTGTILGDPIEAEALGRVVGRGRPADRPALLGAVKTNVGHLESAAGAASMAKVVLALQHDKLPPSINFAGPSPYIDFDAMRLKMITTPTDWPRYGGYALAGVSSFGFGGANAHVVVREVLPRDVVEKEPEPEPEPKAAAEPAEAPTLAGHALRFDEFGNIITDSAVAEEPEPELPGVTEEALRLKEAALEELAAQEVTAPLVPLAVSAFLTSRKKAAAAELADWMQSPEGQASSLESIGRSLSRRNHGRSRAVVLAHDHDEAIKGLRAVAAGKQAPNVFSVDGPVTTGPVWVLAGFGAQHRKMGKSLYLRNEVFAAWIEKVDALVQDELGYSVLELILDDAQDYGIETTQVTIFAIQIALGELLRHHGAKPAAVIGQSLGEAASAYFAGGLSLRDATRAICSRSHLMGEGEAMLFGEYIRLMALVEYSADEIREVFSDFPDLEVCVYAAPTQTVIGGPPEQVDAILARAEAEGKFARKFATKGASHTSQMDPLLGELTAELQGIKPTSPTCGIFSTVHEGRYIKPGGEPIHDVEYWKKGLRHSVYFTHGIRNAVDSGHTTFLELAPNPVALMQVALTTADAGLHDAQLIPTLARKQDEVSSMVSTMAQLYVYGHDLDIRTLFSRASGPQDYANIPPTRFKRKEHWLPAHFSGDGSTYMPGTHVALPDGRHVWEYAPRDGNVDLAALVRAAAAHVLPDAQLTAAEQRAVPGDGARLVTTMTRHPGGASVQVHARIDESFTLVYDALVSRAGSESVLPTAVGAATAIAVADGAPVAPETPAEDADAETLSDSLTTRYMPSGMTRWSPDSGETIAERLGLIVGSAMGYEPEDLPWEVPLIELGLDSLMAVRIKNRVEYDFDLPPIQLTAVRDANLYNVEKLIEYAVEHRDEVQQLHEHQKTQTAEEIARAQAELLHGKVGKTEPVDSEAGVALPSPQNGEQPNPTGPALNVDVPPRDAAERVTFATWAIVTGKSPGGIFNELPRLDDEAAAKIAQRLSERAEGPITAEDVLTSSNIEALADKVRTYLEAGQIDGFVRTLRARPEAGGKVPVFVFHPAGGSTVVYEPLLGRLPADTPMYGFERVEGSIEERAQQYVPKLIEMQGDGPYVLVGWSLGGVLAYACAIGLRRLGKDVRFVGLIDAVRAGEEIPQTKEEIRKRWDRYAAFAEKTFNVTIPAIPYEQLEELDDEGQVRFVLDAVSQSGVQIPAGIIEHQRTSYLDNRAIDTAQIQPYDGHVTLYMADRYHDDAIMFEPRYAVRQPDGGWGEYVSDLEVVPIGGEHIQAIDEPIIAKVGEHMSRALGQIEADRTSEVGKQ

The filed quantity is “Percent Effect” (%).
The record does not define 0% and 100%; most values in the screen are far below 50% and negative numbers occur (in some assays of this library far below -100).
The compounds are a random part of those screened.
A dash means the value is not listed here; it may have been measured.

compound,ClpP1P2,TcHisRS,PfKRS1,Pks13 thioesterase
O=C1CNc2ncnc(Nc3cnn(Cc4ccccc4)c3)c2N1,-7.657,4.95,0.961,28.46
Cc1ccsc1C(Cc1ccccc1)NC(=O)CNC(=O)C1CC1 (stereo not given),-11.5,3.158,2.119,-12.26
N#CCCCOc1cccnc1NC(=O)CC1CCCCC1,-9.642,3.125,-1.466,-3.618
CN(C)c1cc(NCc2cnc3n2CCN(CC2CC2)CC3)ncn1,-4.932,7.362,5.949,-7.129
c1csc(C2(NCc3csc(C4CC4)n3)CCCC2)n1,2.667,7.772,4.096,-2.682
O=C1CC(c2ccccc2)c2snc(C(=O)O)c2N1 (stereo not given),-2.444,1.639,-2.81,-7.16
COc1ncccc1NC(=O)N(CC(C)C)C1CC1,-4.879,0.5714,0.4426,-30.83
Fc1cccnc1N1CCOCC2(CCCNC2)C1 (stereo not given),10.43,5.747,3.422,9.508
CCN1CCN(C(C)(C)CNc2nc(C)cc(C3CCC3)n2)CC1,1.02,6.466,2.005,-16.52
CCS(=O)(=O)N1CCn2cc(CN(C)Cc3ccco3)nc2C1,-3.554,7.143,-0.8885,-
CC(C)c1nc2c(n1C)CCN(Cc1nc(-c3cccnc3)no1)C2,-15.34,25.15,0.9359,-16.68
c1ccc(-c2cnc(CN3CCn4c(nnc4C4CC4)C3)o2)cc1,11.93,4.183,-0.861,-6.657
CCc1cc(N2CCC(n3cc(C(=O)NC4CC4)nn3)CC2)ncn1,11.51,4.545,4.571,-2.03
CCn1ncc2c1CN(CCc1cccc(Cl)c1)CC2COC (stereo not given),-1.741,2.513,1.568,-13.36
Cc1ccc(CCNC(=O)N2CCCC(Cc3nccn3C)C2)cn1 (stereo not given),-2.822,2.674,6.25,-3.042
CC(=O)c1c(C)nn(S(=O)(=O)c2ccc(F)cc2)c1C,-2.665,-2.632,-2.331,-17.23
Cc1cc(C)n(CC2CCCN2C(=O)c2ccc3[nH]cnc3c2)n1 (stereo not given),-2.165,2.439,4.319,-0.7311
CNC(=O)C1Cn2ccnc2C2(CCN(Cc3cccnc3)CC2)O1 (stereo not given),3.396,8.287,4.366,-19.27
Cc1cnn(CCCn2c(C)cc(C(F)(F)F)cc2=O)c1,-21.75,4.831,4.376,-10.68
CCn1cc(S(=O)(=O)Nc2nc3c(s2)CCCC3)cn1,-25.21,5.804,1.441,5.443
Cc1cccc(COc2ccc(C(C)N)cc2)c1 (stereo not given),2.048,13.07,-3.284,-10.38
c1ccc(CCN2CCN(c3ncnc4[nH]ccc34)CC2)cc1,-8.937,-3.636,2.557,-25.61
CS(=O)(=O)NC[C@]12COC[C@H]1CN(C(=O)Cc1ccccc1F)C2,-2.888,-127.2,-2.33,22.52
Cc1ncc2c(n1)CN(Cc1nc(-c3ccco3)oc1C)CC2,-23.21,32.16,10.69,5.491
CCCC1(CO)CCCN(C(=O)CNC(N)=O)C1 (stereo not given),1.602,7.463,4.87,6.377
COCc1nc2cc(NCc3ccncc3)ccc2o1,5.707,36.9,4.998,10.71
COc1ccc(NC(=O)c2ccccc2NCc2ncnn2C)cc1,-8.528,0.6135,2.234,7.525
O=C(Cc1ccc(CO)cc1)N1CCN(CC2CC2)[C@@H]2CS(=O)(=O)C[C@@H]21,10.41,3.175,1.268,-14.26
CCN(CC)C(=O)CSc1nnc(CCNC(=O)OC(C)(C)C)o1,5.807,6.433,-0.4122,-2.228
CCCn1ncc2c(C(=O)NC(C)Cn3cccn3)cc(C3CC3)nc21 (stereo not given),-1.241,2.591,-0.4551,-4.757
CCn1nc(C)c(CCNC(=O)C2CCCN(C3CCCC3)C2)c1C (stereo not given),-0.4669,-2.242,4.667,-13.17
CC(NC(=O)CCCOc1cccc(F)c1)c1ccncc1 (stereo not given),-11.38,4.124,-1.15,-
CC(=O)c1ccc(-n2ccc3nc(N4CCCC4)ncc3c2=O)cc1,-3.14,4.545,4.958,3.514
Cc1c(-c2c(-c3ccccc3)ncn2[C@@H](C(=O)O)[C@H](C)O)cnn1C,-8.19,-1.604,-0.5087,-0.2821
CN1CCN(C2CCN(CCOc3ccc(Cl)cc3)CC2)C1=O,-20.06,1.724,1.637,-17.21
CC(C)CCC(=O)NC(C#N)CC(C)C (stereo not given),0.2721,-1.064,-0.4111,-15.25
COCCN1CCCN(C(=O)NC(C)Cn2cccn2)CC1 (stereo not given),-4.52,1.901,2.938,-0.2062
CC(C)(O)CCc1ccc(C(=O)N2CCN(CC(F)(F)F)CC2)cc1,-3.997,8.861,2.019,2.633
CN1CCN(C(=O)CCn2nnc3ccccc32)CC(C(N)=O)C1 (stereo not given),-17.14,9.091,3.835,24.39
COCC(=O)N(C)Cc1cccc(Cl)c1,0.392,0,-3.424,-10.5
COCCC(=O)N1CC[C@H]2O[C@@H](C)C[C@H]2C1,3.226,-1.961,-1.567,-0.2054

For reference, 4 entries once more:

{"compound": "CCCC1(CO)CCCN(C(=O)CNC(N)=O)C1", "stereo": "stereo not given", "ClpP1P2": 1.602, "TcHisRS": 7.463, "PfKRS1": 4.87, "Pks13 thioesterase": 6.377}
{"compound": "Cc1c(-c2c(-c3ccccc3)ncn2[C@@H](C(=O)O)[C@H](C)O)cnn1C", "ClpP1P2": -8.19, "TcHisRS": -1.604, "PfKRS1": -0.5087, "Pks13 thioesterase": -0.2821}
{"compound": "COc1ccc(NC(=O)c2ccccc2NCc2ncnn2C)cc1", "ClpP1P2": -8.528, "TcHisRS": 0.6135, "PfKRS1": 2.234, "Pks13 thioesterase": 7.525}
{"compound": "CS(=O)(=O)NC[C@]12COC[C@H]1CN(C(=O)Cc1ccccc1F)C2", "ClpP1P2": -2.888, "TcHisRS": -127.2, "PfKRS1": -2.33, "Pks13 thioesterase": 22.52}

Measurements from “University of Dundee, Small-Polar-MMV Screening Library” (2021), ChEMBL document CHEMBL3988442.